The assay deals with FLAG-METTL5-WT (human). Description: co-IP; anti-FLAG M2 beads in clarified lysate of transfected HeLa cells, 1 h at 4 °C; 50 mM Tris pH 7.4, 150 mM NaCl, 10% glycerol, 1.5 mM MgCl2, 0.5 mM EDTA, 0.2% NP-40, 1 mM DTT; three washes; Western blot with anti-FLAG and anti-TRMT112. (A western blot detects proteins with antibodies after separation by electrophoresis.)

Among the data in article PMC8857481 are binding values, retold here.

No constants are given. Whether binding was seen depends on the method and setting. Binding seen in cells or lysates may run through a third protein. Binding can be weak; no strength is given.

B1: TRMT112 (protein, UniProt Q9UI30 1-125)
chain: MKLLTHNLLSSHVRGVGSRGFPLRLQATEVRICPVEFNPNFVARMIPKVEWSAFLEAADNLRLIQVPKGPVEGYEENEEFLRTMHHLLLEVEVIEGTLQCPESGRMFPISRGIPNMLLSEEETES
As for B1, the binding entry is “binds”.
